According to PubChem BioAssay AID485314 (National Center for Advancing Translational Sciences (NCATS), 2010):
In all, about 340,000 compounds went through this assay and about 4,500 (1.3%) were called active. The shares of active, inactive and inconclusive entries below differ from those in the screen. The call rests on the fitted dose curve; in most records, active means well fitted inhibition curve with a large enough effect; inconclusive means small, poorly fitted or top-dose-only effect, or another doubt; inactive means no such curve, though single readings can be large or run the other way. Potencies of inconclusive entries are doubtful fits and often do not repeat.
On the % scale 0 is the no-effect control and ±100 the full control effect; potency means the concentration at half of the fitted maximal effect.

The compounds below were run against DNA polymerase beta (Homo sapiens) (UniProt P06746) (assay: qHTS Assay for Inhibitors of DNA Polymerase Beta). Settings: Pol beta primer extension/strand displacement, fluorescence kinetic; activity change, negative = inhibition: at 114 µM (top of the series).
Summary of the method: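 Preincubation: enzyme (10 nM) with compound, 15 min, RT. Reaction: substrate added to 50 nM final. Reads: 0 and 10 min. Analysis: normalized, Hill fit.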
For Cc1c(Cc2ccc3c(c2)OCO3)sc(NC(=O)c2ccccc2)c1C(N)=O, the Potency was inconclusive: 89.1 µM [inhibitor, single point]. C[C@@H]1CC=C[C@H]2[C@H]1C(=O)N(Cc1ccccc1)[C@H]2c1ccc(F)c(/C=C/c2ccccc2)c1 was tested, and the Potency was inconclusive: 0.794 µM [inhibitor, partial curve, poor fit]. In the case of CN(C)CCNS(=O)(=O)c1ccc(N2CCN(c3ccc(F)cc3)CC2)c([N+](=O)[O-])c1, the “activity change, negative = inhibition” value is reported as inactive: 24.9%. In the case of CCOCC(=O)Nc1ccc(S(=O)(=O)Nc2nccs2)cc1, the “activity change, negative = inhibition” value is reported as inactive: 28.6%. With Cc1c(C(=O)NCc2cccnc2)sc2nc(-c3ccccc3)cn12 the Potency was inconclusive: 0.141 µM [inhibitor, full curve, poor fit]. Cc1ccc(C(=O)/C=C/c2cc(Br)cc(Br)c2O)o1 was tested, and the Potency was inconclusive: 50.1 µM [inhibitor, partial curve]. With Cc1ccc(CCNC(=O)CCn2nc(-c3ccc(Cl)cc3)ccc2=O)cc1 the “activity change, negative = inhibition” value was inactive: 15.3%. For Cn1c(/C=N/Nc2nc3ccccc3[nH]2)nc2ccccc21, the Potency was inconclusive: 79.4 µM [inhibitor, single point]. For Fc1cccc2sc(Nc3nc4cc5c(cc4s3)OCO5)nc12, the “activity change, negative = inhibition” value was inactive: 14.4%. In the case of Cc1sc2nc(CSc3nc4ccccc4c(=O)n3CCCN3CCOCC3)[nH]c(=O)c2c1C, the Potency is reported as inconclusive: 79.4 µM [inhibitor, single point]. Cc1nc(OCC(C)C)c2sc3nc4c(cc3c2n1)COC(C)(C)C4 was tested, and the Potency was inconclusive: 0.891 µM [inhibitor, full curve, poor fit]. In the case of O=C(c1ccco1)N1CCN(Cc2ccc(Br)cc2)CC1, the “activity change, negative = inhibition” value is reported as inactive: 19.4%. CCN(CC)CCNC(=O)C(=O)Nc1cc2c3c(c1)CC(=O)N3CCC2 was tested, and the activity change, negative = inhibition was inconclusive: -33.3% [inhibitor]. Cc1sc(NC(=S)Nc2ccc(F)cc2)c(C(N)=O)c1C was tested, and the Potency was inconclusive: 0.316 µM [inhibitor, full curve]. Clc1cccc(-c2ccc(CNCCCN3CCOCC3)o2)c1 was tested, and the Potency was inconclusive: 89.1 µM [inhibitor, single point]. In the case of CC1CN(C2CCCCC2)c2nc3c(c(=O)[nH]c(=O)n3C)n2C1 (stereo not given), the Potency is reported as inconclusive: 3.16 µM [inhibitor, partial curve]. In the case of CCOC(=O)N1CCN(C(=O)c2ccc3c(c2)N(Cc2cccc(Cl)c2)C(=O)c2ccccc2S3=O)CC1 (stereo not given), the Potency is reported as inconclusive: 89.1 µM [inhibitor, single point]. For O=C(Nc1ccc(Br)cc1)C1CCN(c2ncccn2)CC1, the “activity change, negative = inhibition” value was inactive: 20.7%. CCC(=O)N/N=C/c1ccc(-c2ccc([N+](=O)[O-])cc2)o1 was tested, and the Potency was inconclusive: 14.1 µM [inhibitor, partial curve, poor fit]. CSc1nc(=S)cc(C)[nH]1 was tested, and the “activity change, negative = inhibition” value was inactive: 1.72%. With CCN(c1ccc(OC)cc1)S(=O)(=O)c1nnc(NC(=O)c2ccco2)s1 the activity change, negative = inhibition was inconclusive: -46.1% [inhibitor]. With CCOc1ccc(NC(=O)CCn2cccn2)cc1 the “activity change, negative = inhibition” value was inactive: 3.81%. With COc1cccc(/C=N/NC(=O)CNC(=O)C(c2ccccc2)c2ccccc2)c1O the Potency was inconclusive: 25.1 µM [inhibitor, full curve]. With COc1ccccc1NC(=O)Cn1nnc(C(=O)Nc2ccccc2Br)c1N the “activity change, negative = inhibition” value was inactive: -24.8%. COc1ccccc1NC(=O)N1CCN(S(C)(=O)=O)CC1 was tested, and the Potency was inconclusive: 0.158 µM [inhibitor, full curve]. With COc1ccc(C(=O)CN2CCN(c3ccc(Cl)cc3)CC2)cc1OC the Potency was inconclusive: 89.1 µM [inhibitor, single point]. COc1ccc(Cn2c(SCC(=O)NCc3ccco3)nc3ccsc3c2=O)cc1 was tested, and the Potency was inconclusive: 10 µM [inhibitor, full curve, poor fit]. In the case of O=C(O)c1cc2n(n1)CCN(Cc1ccccc1Cl)C2=O, the Potency is reported as inconclusive: 3.16 µM [inhibitor, single point]. In the case of S=c1nccc(-c2ccc(Cl)cc2)[nH]1, the “activity change, negative = inhibition” value is reported as inactive: -27%. With COc1ccc(N(C(=O)CNC(=O)c2cccs2)C(C(=O)NCC2CCCO2)c2ccc(OC)c(OC)c2)cc1 (stereo not given) the Potency was inconclusive: 39.8 µM [inhibitor, single point]. With Cc1ccc(-c2nnc(Nc3ccc(O)cc3)c3ccccc23)cc1S(=O)(=O)N1CCCCC1 the “activity change, negative = inhibition” value was inactive: 0.0269%. With CCCN(CCC)C(=O)Cc1ccc(F)cc1 the Potency was inconclusive: 89.1 µM [inhibitor, single point]. In the case of CSc1ccc(NC(=O)NCCCN2CCC(Cc3ccccc3)CC2)cc1, the Potency is reported as inconclusive: 0.562 µM [inhibitor, full curve, poor fit]. For CC(=O)Nc1ccc(-c2nnc(SCC(=O)c3ccc4c(c3)Cc3ccccc3-4)n2C)cc1, the Potency was inconclusive: 44.7 µM [inhibitor, full curve]. For C#CCOCCOCCOCCNc1nc(N2CCN(C(=O)Cn3cc(CC(C)O)nn3)CC2)nc(N2CCN(C(=O)[C@H](CCCCN)n3cc(CCC(=O)O)nn3)CC2)n1 (stereo not given in full), the Potency was inconclusive: 89.1 µM [inhibitor, single point]. In the case of COC(=O)N/N=C/c1ccc([N+](=O)[O-])o1, the Potency is reported as inconclusive: 35.5 µM [inhibitor, partial curve]. In the case of COc1ccc2c(c1)CCC(C)N2C(=O)C(=O)c1c[nH]c2ccccc12 (stereo not given), the activity change, negative = inhibition is reported as inconclusive: -42.2% [inhibitor]. For CCc1nn(CCCC(=O)NCc2cc(Br)ccc2OC)c(=O)c2cc3occc3n12, the Potency was inconclusive: 39.8 µM [inhibitor, single point] and the activity change, negative = inhibition was inconclusive: -48.3% [inhibitor]. COc1ccc(-c2cc(C(=O)c3c(N)n(C)c(=O)n(C)c3=O)c3ccccc3n2)cc1 was tested, and the Potency was inconclusive: 79.4 µM [inhibitor, single point]. Cc1ccn2c(NCc3ccccc3)c(-c3cccs3)nc2c1 was tested, and the Potency was inconclusive: 89.1 µM [inhibitor, single point]. In the case of O=C(c1ccc(Cl)cc1)N1N=C(c2ccccn2)CC1(O)C(F)(F)F (stereo not given), the Potency is reported as inconclusive: 10 µM [inhibitor, partial curve]. With CC(C)N1CCc2c(sc(NC(=O)c3cc4cc([N+](=O)[O-])ccc4s3)c2C(N)=O)C1 the “activity change, negative = inhibition” value was inactive: -22.2%. In the case of N#Cc1c(-c2ccc(Cl)cc2Cl)nc2n(c1=O)CCS2, the Potency is reported as inconclusive: 39.8 µM [inhibitor, single point]. In the case of CC(/C=N/NC(=O)CSc1nnc(SCc2ccccc2)s1)=C\c1ccco1, the Potency is reported as inconclusive: 3.16 µM [inhibitor, full curve]. For O=C(NCCCO)c1cc2c(cn1)[nH]c1ccccc12, the Potency was inconclusive: 89.1 µM [inhibitor, single point]. O=c1/c(=C/c2ccccn2)sc2nc3ccccc3n12 was tested, and the Potency was inconclusive: 11.2 µM [inhibitor, partial curve]. NC(=O)c1ccc(NC(=O)CCc2nc3ccccc3s2)cc1 was tested, and the Potency was inconclusive: 14.1 µM [inhibitor, partial curve]. COc1cc(-c2oc3ccc(C)cc3c(=O)c2O)cc(OC)c1OC was tested, and the Potency was inconclusive: 79.4 µM [inhibitor, single point]. With Cn1c(SCC(N)=O)nnc1C1CCN(S(=O)(=O)c2ccccc2C(F)(F)F)CC1 the Potency was inconclusive: 0.126 µM [inhibitor, full curve, poor fit]. For CN(Cc1ccccc1)C(=O)C1CCN(S(C)(=O)=O)CC1, the Potency was inconclusive: 14.1 µM [inhibitor, single point]. COc1ccc(CCNC(=O)c2nnn(CC(=O)Nc3ccccc3C)c2N)cc1OC was tested, and the Potency was active: 20 µM. For CC1CCc2sc(C(=O)NNC(=S)NCC3CCCO3)cc2C1 (stereo not given), the “activity change, negative = inhibition” value was inactive: 98.1%. With CC1(C)CC(=O)C2=C(C1)OC(N)=C(C#N)C2c1ccc[nH]1 (stereo not given) the Potency was active: 20 µM. In the case of CCN1C(=O)c2ccccc2S(=O)c2ccc(C(=O)N3CCN(c4ccccc4OC)CC3)cc21 (stereo not given), the “activity change, negative = inhibition” value is reported as inactive: -20.3%. For O=C(O)Cc1ccc(NC(=O)C2CC=CCC2C(=O)O)cc1 (stereo not given), the Potency was active: 22.4 µM. With Cc1cccc(N2CC(C(=O)Nc3nnc(SCc4cccnc4)s3)CC2=O)c1 (stereo not given) the Potency was inconclusive: 89.1 µM [inhibitor, partial curve, poor fit]. In the case of CCc1nnc(NC(=O)CSc2nc3ccccc3o2)s1, the Potency is reported as inconclusive: 89.1 µM [inhibitor, single point]. In the case of COc1cc(NC(=O)C2Cc3ccccc3CN2S(C)(=O)=O)cc(OC)c1 (stereo not given), the “activity change, negative = inhibition” value is reported as inactive: 1.75%. With Cc1ccc(CN2C(=O)N/C(=C\c3ccc(-c4ccc(C(=O)O)cc4C)o3)C2=O)cc1 the Potency was active: 20 µM. With Cc1c(OCC(F)(F)F)ccnc1CS(=O)c1nc2ccccc2[nH]1 (stereo not given) the Potency was “inactive”. Cc1cc(N)n(-c2ccc(C)c(C)c2)n1 was tested, and the “activity change, negative = inhibition” value was inactive: 2.55%. With COc1ccc(-n2c(N)c(C(=O)NCc3ccco3)c3nc4ccccc4nc32)cc1 the Potency was inconclusive: 35.5 µM [inhibitor, full curve]. With COCCN(Cc1cc2cc(C)cc(C)c2nc1Cl)C(=O)Nc1ccccc1 the Potency was inconclusive: 70.8 µM [inhibitor, single point]. In the case of O=C(Cn1cnc2c(cnn2-c2ccc(F)cc2)c1=O)OCc1ccccc1, the Potency is reported as inconclusive: 7.94 µM [inhibitor, full curve]. With O=C(Cc1ccc(-n2cccc2)cc1)N1CCN(c2ccccc2F)CC1 the Potency was inconclusive: 44.7 µM [inhibitor, partial curve]. Cn1cnc(S(=O)(=O)N2CCCC(C(=O)NCc3ccccc3)C2)c1 (stereo not given) was tested, and the “activity change, negative = inhibition” value was inactive: 1.3%. For CNC(=O)c1sc(SC)cc1-c1ccc(Cl)cc1, the Potency was inconclusive: 3.16 µM [inhibitor, full curve, poor fit]. With O=C(O)c1ccc2c(=O)n(Cc3ccccc3)c(SCc3ccc([N+](=O)[O-])cc3)nc2c1 the Potency was inconclusive: 70.8 µM [inhibitor, single point]. CCc1cccc(C)c1NC(=O)C1CCN(S(=O)(=O)c2cccc3nonc23)CC1 was tested, and the Potency was inconclusive: 89.1 µM [inhibitor, single point].
